Data published in PubChem BioAssay AID248 (DTP/NCI, 2004).
The list does not hold the whole screen: it gathers tests that were run many times, whatever their T/C, doses with no T/C, and many T/C values between a quarter and a half above the control. Other doses and runs of a compound stand elsewhere. T/C: endpoint of the treated group in % of that of the vehicle group. Some doses have a count of surviving animals in place of a T/C: the source holds a T/C of zero for them, seemingly a mark for toxic or unscored doses. Some doses without a T/C left all or most animals alive at the check, yet need not have been tolerated: the source hardly ever lists a survival T/C far under the control, and the zero likely stands for such cases as well. Counts of survivors are from the toxicity check (mostly the fifth day) where no day follows; animals may have died later. Schedules are NCI's codes, read here as Q, the interval in days (D) or hours (H), X, the number of doses. Some doses were run more than once; the results are listed from low to high. Where survival is the endpoint, this PubChem deposit counts one and a half times the control or more as active, and values a quarter to a half above the control carry no call in these data; other NCI protocols may use other cut-offs. Counts like (3×) count equal records among those shown. Some schedules carry Z or #; the key to these is not given. Some T/C values are followed by the survivors on the day toxicity was checked, most often the fifth; where none is given, no animal had died by that day.

System: L1210 leukemia ip in BDF1 mice, survival T/C
Test: NCI In Vivo Anticancer Drug Screen. Data for tumor model L1210 Leukemia (intraperitoneal) in B6D2F1 (BDF1) mice
Conditions: T/C endpoint: mean survival time, higher T/C = longer survival
[1] = dose: 51.75 mg/kg/injection, schedule: Q02DX010 (ip), vehicle: carboxymethylcellulose (CMC)
[2] = dose: 400.0 mg/kg/injection, schedule: Q04DX003 (ip), vehicle: saline
[3] = dose: 200.0 mg/kg/injection, schedule: Q01DX009 (ip), vehicle: saline with Tween-80
[4] = dose: 400.0 mg/kg/injection, schedule: Q04DX002 (ip), vehicle: saline with Tween-80

NC(=S)N/N=C/c1ccccn1
T/C (dose: 2.6 mg/kg/injection, schedule: Q01DX Z (ip), vehicle: carboxymethylcellulose (CMC)): 125 % of control | survivor count (dose: 2.6 mg/kg/injection, schedule: Q03HX024 (ip), vehicle: carboxymethylcellulose (CMC)): 9 of 10 | T/C (dose: 2.6 mg/kg/injection, schedule: Q03HX024 (ip), vehicle: other): 137 % of control | T/C (dose: 2.6 mg/kg/injection, schedule: Q03HX032 (ip), vehicle: other): 147 % of control | T/C (dose: 3.7 mg/kg/injection, schedule: Q01DX009 (ip), vehicle: saline with Tween-80): 127 and 132 % of control | T/C (dose: 3.8 mg/kg/injection, schedule: Q01DX009 (ip), vehicle: saline with Tween-80): 134 % of control | T/C (dose: 4.0 mg/kg/injection, schedule: Q03HX032 (ip), vehicle: other): 215, 260, 262, 342 % of control | T/C (dose: 4.4 mg/kg/injection, schedule: Q01DX009 (ip), vehicle: other): 148 % of control | T/C (dose: 5.3 mg/kg/injection, schedule: Q01DX Z (ip), vehicle: carboxymethylcellulose (CMC)): 145 % of control | survivor count (dose: 6.0 mg/kg/injection, schedule: Q03HX024 (ip), vehicle: carboxymethylcellulose (CMC)): 10 of 10 | T/C (dose: 6.0 mg/kg/injection, schedule: Q03HX024 (ip), vehicle: other): 145 % of control | T/C (dose: 6.0 mg/kg/injection, schedule: Q03HX032 (ip), vehicle: other): 364 [9 of 10 alive], 368, 373 [8 of 9 alive], 447 % of control | T/C (dose: 6.5 mg/kg/injection, schedule: Q02DX010 (ip), vehicle: carboxymethylcellulose (CMC)): 125 % of control | T/C (dose: 6.6 mg/kg/injection, schedule: Q02DX010 (ip), vehicle: carboxymethylcellulose (CMC)): 129 % of control | T/C (dose: 6.7 mg/kg/injection, schedule: Q01DX009 (ip), vehicle: other): 147 % of control | T/C (dose: 6.7 mg/kg/injection, schedule: Q01DX009 (ip), vehicle: saline): 133 % of control [5 of 6 alive] | T/C (dose: 7.5 mg/kg/injection, schedule: Q01DX009 (ip), vehicle: saline with Tween-80): 140, 144, 146, 165 % of control | survivor count (dose: 8.0 mg/kg/injection, schedule: Q03HX008 (ip), vehicle: other): 5 of 10 | survivor count (dose: 8.0 mg/kg/injection, schedule: Q03HX016 (ip), vehicle: other): 5 of 10 | survivor count (dose: 8.0 mg/kg/injection, schedule: Q03HX024 (ip), vehicle: other): 7 of 10 | survivor count (dose: 9.0 mg/kg/injection, schedule: Q03HX024 (ip), vehicle: carboxymethylcellulose (CMC)): 3 of 10 | survivor count (dose: 9.0 mg/kg/injection, schedule: Q03HX024 (ip), vehicle: other): 4 of 10 | T/C (dose: 9.89 mg/kg/injection, schedule: Q02DX010 (ip), vehicle: carboxymethylcellulose (CMC)): 119 (2×), 123, 130, 132, 134 % of control | T/C (dose: 10.0 mg/kg/injection, schedule: Q02DX010 (ip), vehicle: carboxymethylcellulose (CMC)): 125 and 127 % of control | T/C (dose: 10.0 mg/kg/injection, schedule: Q03HX032 (ip), vehicle: other): 132 % of control [7 of 10 alive] | survivor count (dose: 11.0 mg/kg/injection, schedule: Q01DX015 (ip), vehicle: saline): 4 of 6 | survivor count (dose: 12.0 mg/kg/injection, schedule: Q03HX008 (ip), vehicle: other): 0 of 10 | survivor count (dose: 12.0 mg/kg/injection, schedule: Q03HX016 (ip), vehicle: other): 1 of 10 | survivor count (dose: 12.0 mg/kg/injection, schedule: Q03HX024 (ip), vehicle: other): 1 of 10 | T/C (dose: 15.0 mg/kg/injection, schedule: Q01DX009 (ip), vehicle: saline with Tween-80): 150, 160, 173, 175 % of control | T/C (dose: 15.0 mg/kg/injection, schedule: Q01DX015 (ip), vehicle: other): 127 % of control [9 of 10 alive] | T/C (dose: 15.4 mg/kg/injection, schedule: Q02DX010 (ip), vehicle: carboxymethylcellulose (CMC)): 109, 116, 120, 124, 132, 150 % of control | survivor count (dose: 18.0 mg/kg/injection, schedule: Q03HX008 (ip), vehicle: other): 0 of 10 | survivor count (dose: 18.0 mg/kg/injection, schedule: Q03HX016 (ip), vehicle: other): 0 of 10 | survivor count (dose: 18.0 mg/kg/injection, schedule: Q03HX024 (ip), vehicle: other): 0 of 10 | T/C (dose: 22.5 mg/kg/injection, schedule: Q01DX009 (ip), vehicle: other): 136 % of control [9 of 10 alive] | survivor count (dose: 22.5 mg/kg/injection, schedule: Q01DX015 (ip), vehicle: other): 9 of 10 | T/C (dose: 22.5 mg/kg/injection, schedule: Q02DX010 (ip), vehicle: carboxymethylcellulose (CMC)): 134 % of control | T/C (dose: 23.0 mg/kg/injection, schedule: Q02DX010 (ip), vehicle: carboxymethylcellulose (CMC)): 84, 86, 98, 107, 125, 127 % of control | survivor count (dose: 30.0 mg/kg/injection, schedule: Q01DX009 (ip), vehicle: saline with Tween-80): 2 of 3 | T/C (dose: 34.5 mg/kg/injection, schedule: Q02DX010 (ip), vehicle: carboxymethylcellulose (CMC)): 65, 80, 89, 90, 112, 122 % of control | survivor count (dose: 37.5 mg/kg/injection, schedule: Q01DX015 (ip), vehicle: saline): 1 of 6 | survivor count (dose: 50.0 mg/kg/injection, schedule: Q01DX001 (ip), vehicle: other): 5 of 10 | T/C [1]: 75, 89, 113 % of control | survivor count [1]: 6 of 6 | survivor count (dose: 74.0 mg/kg/injection, schedule: Q01DX001 (ip), vehicle: other): 2 of 10

CC1CC(C)(C)[N+](C)=C(CC(C)(C)O)O1 (centres undefined)
survivor count (dose: 200.0 mg/kg/injection, schedule: Q04DX003 (ip), vehicle: saline): 1 of 6 | survivor count [2]: 0 of 6

c1ccc(-c2csc3[n+]2CCN3)cc1
survivor count (dose: 100.0 mg/kg/injection, schedule: Q01DX001 (ip), vehicle: saline): 0 of 4 | survivor count (dose: 200.0 mg/kg/injection, schedule: Q01DX001 (ip), vehicle: saline): 0 of 4 | survivor count (dose: 400.0 mg/kg/injection, schedule: Q01DX001 (ip), vehicle: saline): 0 of 4

O=Cc1[nH]c(=O)[nH]c(=O)c1Br
survivor count [3]: 6 of 6 | survivor count (dose: 400.0 mg/kg/injection, schedule: Q01DX001 (ip), vehicle: saline with Tween-80): 2 of 6

Cn1c2ccccc2c2nn3cnnc3nc21
survivor count [4]: 2 of 3

C[N+](C)(Cc1ccccc1)C1c2ccccc2-c2ccc(Cl)cc21 (centres undefined)
survivor count (dose: 50.0 mg/kg/injection, schedule: Q04DX002 (ip), vehicle: saline with Tween-80): 0 of 3

Cc1ccc(Cl)cc1NC(=O)Nc1cc(Cl)c(Cl)cc1C
survivor count (dose: 25.0 mg/kg/injection, schedule: Q04DX003 (ip), vehicle: saline with Tween-80): 6 of 6 | survivor count (dose: 100.0 mg/kg/injection, schedule: Q04DX003 (ip), vehicle: saline with Tween-80): 5 of 6 and 6 of 6 | survivor count (dose: 200.0 mg/kg/injection, schedule: Q04DX003 (ip), vehicle: saline with Tween-80): 6 of 6

CCCCNC(=O)C1C=C2c3cccc4[nH]cc(c34)CC2N(C)C1 (centres undefined)
survivor count (dose: 100.0 mg/kg/injection, schedule: Q01DX009 (ip), vehicle: Klucel (hydroxypropylcellulose) (HPC)): 2 of 6 | survivor count (dose: 200.0 mg/kg/injection, schedule: Q01DX009 (ip), vehicle: Klucel (hydroxypropylcellulose) (HPC)): 0 of 6 | survivor count (dose: 400.0 mg/kg/injection, schedule: Q04DX003 (ip), vehicle: Klucel (hydroxypropylcellulose) (HPC)): 1 of 6

NC(CSS(=O)(=O)O)=NCC1CC2CCC1C2 (centres undefined)
survivor count (dose: 100.0 mg/kg/injection, schedule: Q04DX002 (ip), vehicle: saline with Tween-80): 0 of 3 | survivor count (dose: 200.0 mg/kg/injection, schedule: Q04DX002 (ip), vehicle: saline with Tween-80): 0 of 3 | survivor count [4]: 0 of 3

Nc1ccc2c(c1)sc1ccccc12
survivor count (dose: 400.0 mg/kg/injection, schedule: Q04DX003 (ip), vehicle: saline with Tween-80): 1 of 6

CC1(C)COC(CC2CCCCC2)=N1
survivor count [2]: 0 of 6

COc1cccc(NC(=O)NC(C)(C)C)c1
T/C (dose: 100.0 mg/kg/injection, schedule: Q01DX009 (ip), vehicle: saline with Tween-80): 94 (2×), 98, 101 % of control | T/C [3]: 94, 105, 115 % of control | survivor count [3]: 3 of 3
